# Measurements reported in PubChem BioAssay AID504706 (National Center for Advancing Translational Sciences (NCATS), 2011).
# The campaign covered roughly 320,000 compounds. About 200 (0.062%) were called active. Inconclusive results (about 6%) are left out. The call rests on the fitted dose curve; in most records, active means well fitted activation curve with a large enough effect; inconclusive means small, poorly fitted or top-dose-only effect; inactive means no such curve, though single readings can be large or run the other way. The entries are a selection whose mix differs from that of the whole data set. Where no call is shown, the source filed none.
# Assay: qHTS assay for re-activators of p53 using a Luc reporter; further: nearly all actives have a fitted effect of over 45% in size; on activity change, positive = activation: % of control where 0% means no effect
# Conditions: H1299 p53-A138V BP100-luciferase reporter, luminescence, 24 h; activity change, positive = activation: at 92.2 µM (top of the series)
# How it was run: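 p53-null H1299 cells stably carrying temperature-sensitive p53-A138V and a BP100-luciferase reporter were pinned with compounds (4-point, 1:5 series) and held 24 hrs at 37 deg C. Luminescence was read 10 min after detection reagent.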
# Potency means the concentration at half of the fitted maximal effect.
Structure (SMILES),"activity change, positive = activation",Potency
Cc1nnc(SCC(=O)Nc2ccc(-c3nc4ccccc4s3)cc2)s1,76.7%,–
COc1ccc2cc(-c3cc(C(=O)OCC(=O)Nc4c(C)n(C)n(-c5ccccc5)c4=O)c4ccccc4n3)ccc2c1,49.3%,–
c1ccc2[nH]c(-c3ccnc4ccccc34)nc2c1,inactive: 7.08%,–
O=c1c(-c2ccc3c(c2)OCCO3)coc2cc(OC3OC(CO)C(O)C(O)C3O)ccc12 (configuration not stated),36.6%,–
Nc1ccc(-c2nc3ccccc3[nH]2)cc1,24.1%,–
CCc1cc2c(=O)n(Cc3ccco3)c(SCc3c(C)noc3C)nc2s1,inactive: -22.6%,–
Fc1cccc(/C=N/Nc2nncc3ccccc23)c1,26.4%,–
COc1ccc(OCc2cccc(C(=O)Nc3cc(C)on3)c2)cc1,49.4%,–
COC(=O)c1[nH]c2ccc(F)cc2c1NC(=O)CCN1CC(C)OC(C)C1 (configuration not stated),inactive: -31.1%,–
CCOC(=O)CNC(=O)c1cc(-c2ccc3c(c2)OCCO3)oc1C,38.8%,–
O=C(NCCOc1ccccc1F)c1cc(F)c(F)cc1Cl,24.6%,–
Cc1cccc(Nc2cc(=O)[nH]c(=O)[nH]2)c1C,35.3%,–
O=C(NCc1cccnc1)/C(=C\c1ccc(-c2cccc(Cl)c2)o1)S(=O)(=O)c1ccccc1,inactive: -37%,–
Cc1ccc(NC(=O)c2ccc3nc[nH]c3c2)cc1C,139%,–
CCN(c1ccccc1)S(=O)(=O)c1ccc(C(=O)N(CCCN(C)C)c2nc3cc4c(cc3s2)OCO4)cc1,inactive: -41.7%,–
O=C(/C=C/Nc1ccc(F)cc1)c1ccco1,–,active: 44.7 µM
Oc1ccc(-c2cnc(-c3ccc(O)cc3)nc2)cc1,–,active: 14.1 µM
O=C(c1ccc(-c2ccc([N+](=O)[O-])cc2)o1)N1CCCCC1,57.3%,–
CC(C)Oc1ccc(C(=O)OC(C)C(=O)NC2CCCCC2C)cc1 (configuration not stated),inactive: -34%,–
N#C/C(Cn1c[n+](NC(=O)Nc2ccccc2)cn1)=N/O,124%,–
Cc1ccc(N/C=C/C(=O)c2ccccc2)cc1C,55.3%,–
O=C(Nc1ccc(COc2ccccc2)cc1)c1cccc([N+](=O)[O-])c1,50.5%,–

# Full records, looked up by structure. Values in the order: activity change, positive = activation | Potency
# c1ccc2[nH]c(-c3ccnc4ccccc34)nc2c1 as listed: inactive: 7.08% | –
# O=C(/C=C/Nc1ccc(F)cc1)c1ccco1 as listed: – | active: 44.7 µM
